The data set has as its system Sprague Dawley rats. The data set is described as follows: Measurement of NO concentration in blood and dialysate during rat blood dialysis (OxiSelect Nitrite/Nitrate kit). Format: in vivo. The following applies: for NO concentration in the dialysate: calculated from the 800 ppm result. The procedure: NO gas of which the concentration was adjusted to 200 ppm, 400 ppm, and 800 ppm was added to the dialysate via a gas exchanger. As a control group, nitrogen gas (N2) was added to the dialysate instead of NO gas.
For a group in which 800 ppm of NO gas was supplied to the dialysate, the dialysate was supplied to the blood (in) on an arterial side of the dialysis unit, the blood (out) on a venous side of the dialysis unit, the dialysate (in) in the dialysate supply channel for supplying the dialysate to the dialysis unit, and the dialysate (out) in the dialysate discharge channel for discharging the dialysate from the dialysis unit were collected 1 hour after the start of circulation, and the NO concentration was measured using a commercially available kit (“OxiSelect In Vitro Nitric Oxide (Nitrite/Nitrate) Assay Kit (Colorimetric)” made by Cell Biolabs, Inc.). The NO concentration was measured as the sum of the concentrations of NO2^− and NO3^− after the NO was completely hydrolyzed. For this reason, hereinafter, there is a case where the total concentration of […] is referred to as the NO concentration.

nitric oxide [NO gas]: the “NO concentration in the dialysate” value reads like this: (200 ppm NO gas supplied) 0.5 µM; (400 ppm NO gas supplied) 1 µM. In addition, the “NO concentration in the dialysate in the dialysate supply channel” value (800 ppm NO gas supplied to the dialysate, 1 hour after start of circulation, sum of NO2- and NO3-) is 2 µM.
